No constants are given. Whether binding was seen depends on the method and setting. Binding seen in cells or lysates may run through a third protein. Some entries that bind do so weakly or less than the wild type. For some of these results: Where a sequence is shown, tags or fusion partners need not be part of it.

The chains behind the UniProt entries cited, without tags or fusion partners. Residues count along the entry.
UniProt Q01973, residues 30-937: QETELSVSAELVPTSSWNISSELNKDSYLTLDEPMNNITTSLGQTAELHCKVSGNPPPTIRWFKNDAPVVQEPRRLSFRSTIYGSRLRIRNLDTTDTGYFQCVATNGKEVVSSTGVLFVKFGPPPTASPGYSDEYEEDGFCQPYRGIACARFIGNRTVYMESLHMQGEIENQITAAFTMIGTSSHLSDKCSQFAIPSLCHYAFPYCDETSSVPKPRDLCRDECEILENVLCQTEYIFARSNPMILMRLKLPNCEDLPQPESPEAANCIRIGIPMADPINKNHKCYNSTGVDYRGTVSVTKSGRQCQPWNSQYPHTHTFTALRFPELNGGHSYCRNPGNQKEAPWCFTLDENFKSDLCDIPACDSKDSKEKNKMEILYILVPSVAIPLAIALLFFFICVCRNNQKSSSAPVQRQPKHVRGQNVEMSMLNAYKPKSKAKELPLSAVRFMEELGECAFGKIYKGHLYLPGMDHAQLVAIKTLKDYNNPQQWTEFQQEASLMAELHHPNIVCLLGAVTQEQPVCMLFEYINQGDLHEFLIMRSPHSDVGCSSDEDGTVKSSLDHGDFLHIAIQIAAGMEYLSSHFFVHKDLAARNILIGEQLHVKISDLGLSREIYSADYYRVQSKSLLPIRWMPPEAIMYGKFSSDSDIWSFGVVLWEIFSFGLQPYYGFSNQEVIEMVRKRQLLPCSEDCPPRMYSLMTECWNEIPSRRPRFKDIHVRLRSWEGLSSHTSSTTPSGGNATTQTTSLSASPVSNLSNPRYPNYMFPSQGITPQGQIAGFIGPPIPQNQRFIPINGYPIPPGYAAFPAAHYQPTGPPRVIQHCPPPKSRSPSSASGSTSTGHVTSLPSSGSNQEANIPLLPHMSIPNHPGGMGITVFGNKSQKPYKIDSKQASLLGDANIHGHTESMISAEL
UniProt Q03135: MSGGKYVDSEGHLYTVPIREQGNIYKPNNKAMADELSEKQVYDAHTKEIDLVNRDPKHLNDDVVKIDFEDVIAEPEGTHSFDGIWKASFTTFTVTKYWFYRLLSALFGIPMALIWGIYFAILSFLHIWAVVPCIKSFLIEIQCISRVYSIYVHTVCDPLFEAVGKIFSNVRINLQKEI

Results on three substances are retold here after article PMC4777216.

In one experiment the target is T1, GST-tagged cavin-1-WT (UniProt Q6NZI2).
T1 sequence: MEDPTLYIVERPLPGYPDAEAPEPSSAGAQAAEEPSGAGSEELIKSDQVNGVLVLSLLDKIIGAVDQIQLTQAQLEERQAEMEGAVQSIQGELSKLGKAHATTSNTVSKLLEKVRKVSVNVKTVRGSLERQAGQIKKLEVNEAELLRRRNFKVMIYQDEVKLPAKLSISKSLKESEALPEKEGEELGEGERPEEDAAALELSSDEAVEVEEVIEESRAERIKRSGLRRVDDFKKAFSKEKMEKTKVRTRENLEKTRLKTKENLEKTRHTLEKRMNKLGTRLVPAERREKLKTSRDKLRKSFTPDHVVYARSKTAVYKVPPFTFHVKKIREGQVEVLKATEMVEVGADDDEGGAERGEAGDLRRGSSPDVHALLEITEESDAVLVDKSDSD
The experiment is described as follows: pull-down; glutathione beads coated with recombinant GST-tagged protein, mixed with NCI-H1975 extract in octylglucoside buffer (60 mM octylglucoside, 150 mM NaCl, 50 mM EDTA); Western blot; only the target purified. (In general: In western blotting, separated proteins are transferred to a membrane and probed.)

Experiment [1] has as its target T2, cavin-1 (also known as PTRF), endogenous (human (endogenous in NCI-H1975, SK-LU-1, NCI-H441, PC-9)) (UniProt Q6NZI2).
T2 sequence: T1 sequence
The experiment is described as follows: co-IP; endogenous proteins; whole-cell lysates of NSCLC cell lines in octylglucoside buffer (60 mM octylglucoside, 150 mM NaCl, 50 mM EDTA); IP with anti-ROR1, anti-cavin-1 or non-specific IgG, Western blot; for cavin-1 with CAV1 cells harvested 24 h after siROR1 or siControl.

The target in experiment [2] is receptor tyrosine kinase-like orphan receptor 1 (ROR1), endogenous (human (endogenous in NCI-H1975, SK-LU-1, NCI-H441, PC-9)) (UniProt Q01973). The experiment is described as above.
The target of experiment [3] is ROR1 wild type expressed in COS-7 (pCMVpuro-ROR1-WT) (UniProt Q01973). The experiment is described as follows: co-IP; COS-7 co-transfected with ROR1 and cavin-1 or CAV1 constructs, harvested 24 h later in NP-40 lysis buffer (20 mM Tris-HCl pH 8.0, 137 mM NaCl, 2 mM EDTA, 1% NP-40, 10% glycerol, 1 mM Na3VO4); IP–WB.
Another experiment concerns the target GST-tagged CAV1 (UniProt Q03135). The experiment is described as follows: pull-down; glutathione beads coated with recombinant GST-tagged protein, mixed with NCI-H1975 extract in octylglucoside buffer (60 mM octylglucoside, 150 mM NaCl, 50 mM EDTA); Western blot; only the target purified.
Experiment [4] concerns the target T3, GST-tagged cavin-1-MAD (233–321) (UniProt Q6NZI2).
T3 sequence: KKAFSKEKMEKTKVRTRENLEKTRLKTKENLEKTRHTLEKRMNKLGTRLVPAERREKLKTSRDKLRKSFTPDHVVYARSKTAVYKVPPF
Described as above.

Take “caveolin-1 (CAV1), endogenous (from UniProt Q03135 1-178)”: the binding entry (with GST-tagged cavin-1-WT; in experiment [1]; in experiment [2]) was “binds” throughout.

Turning to “CAV1-WT-myc expressed in COS-7 (from UniProt Q03135 1-178)”, the binding entry in experiment [3] was “binds”.

In the case of “receptor tyrosine kinase-like orphan receptor 1 (ROR1), endogenous (from UniProt Q01973 30-937)”, the binding entry (with GST-tagged CAV1; in experiment [4]; with GST-tagged cavin-1-WT) was “binds” throughout.
